In general, AC50 refers to the concentration at which the activity in the assay is half-maximal.

Structures are written as SMILES. The list shows a part of the results. Shown are side measurements of this screen, not its main read-out; they come without a call. Most of these compounds were active or inconclusive in the main read-out, so they are no random draw. The note in brackets gives the kind of curve behind each potency; many fits are weak.

This experiment is described as follows: qHTS Assay for Lipid Storage Modulators in Drosophila S3 Cells.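 For cell number change: cells counted by Cell Tracker Red CMTPX staining in the red channel.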 To be noted: BODIPY lipid droplet fluorescence, 18-24 h; for cell number change: measured here: cell count max response, cells fed with added oleic acid. The gist of the method:
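Drosophila S3 cells got compounds at several concentrations plus oleic acid (400 uM solution). Laser-scanning cytometry with 488 nm excitation read lipid droplets at 500-530 nm and cells at 575-640 nm. Percent activity was relative to 20 uM Triacsin C.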
On the technique in general: qHTS replaces the single test concentration by a dilution series.

Setting [1] is: measured here: lipid fluorescence (Fed channel) AC50, cells fed with added oleic acid.
[2] abbreviates: measured here: cell number channel AC50, cells fed with added oleic acid.

Take `Clc1ccccc1CN(Cc1ccco1)Cc1nnnn1C1CCCC1`: the cell number change was -11.6%. The AC50 under setting [1] is 8.2 µM [falling, partial curve, poor fit]. As for `O=C(O)CSc1nc(-c2ccccc2)nc2c1CCCC2`, the cell number change is -43.1%. For the same compound, the AC50 under setting [2] is 16.4 µM [falling, single point]. Besides, the AC50 under setting [1] was 29.1 µM [falling, single point].

For `O=Cc1[nH]c2ccccc2c1N(C(=O)CCl)c1ccc([N+](=O)[O-])cc1`, the cell number change is -18.1%. Moreover, the AC50 under setting [2] was 4.11 µM [falling, single point]. Also, the AC50 under setting [1] was 3.66 µM [falling, full curve].

For the compound `Cc1cc(NC(=O)CSc2nnc(-c3ccc(S(=O)(=O)N4CCCC4)cc3)n2C)no1`, the cell number change was 3.23%. The AC50 under setting [1] is 0.0291 µM [falling, full curve]. With `CC(=O)Nc1ccc(NC(=O)CSc2nnc(-c3cccs3)n2C)cc1`, the cell number change was 14.1%. In the case of `CC1=C(C#N)C(Nc2cc(C)ccn2)(C(F)(F)F)C(=O)N1` (stereo not given), the cell number change was found to be 37.2%. Further, the AC50 under setting [2] is 7.31 µM [rising, partial curve]. Also, the AC50 under setting [1] is 3.66 µM [rising, single point]. For the compound `COc1ccc(NC(=S)NNC(=O)C(C)n2nc(C)c([N+](=O)[O-])c2C)cc1` (stereo not given), the cell number change is 38.4%. In addition, the AC50 under setting [2] is 8.2 µM [rising, partial curve]. Under setting [1], the AC50 is 7.31 µM [rising, partial curve].

In the case of `COc1ccccc1N(C)S(=O)(=O)c1ccc(Cl)c(C(=O)NNC(=O)c2ccccc2O)c1`, the cell number change is -7.03%. Under setting [1], the AC50 is 6.51 µM [falling, single point].

As to `COc1ccc(O)c(-c2nc(N)nc(N)n2)c1`, the cell number change is -22.5%. The half-maximal activity concentration (AC50) under setting [1] was 0.366 µM [rising, single point]. With `COc1cc(-c2nnc3sc(-c4cccs4)nn23)cc(OC)c1OC`, the cell number change is -6.56%. Moreover, under setting [1], the half-maximal activity concentration (AC50) is 0.651 µM [rising, single point].

In the case of `Nc1ccccc1SCc1cn2ccccc2n1`, the cell number change is 25.5%. For the same compound, the AC50 under setting [1] is 8.2 µM [rising, partial curve]. With `CC(OC(=O)Cc1coc2ccc3ccccc3c12)C(=O)Nc1ncc(Cl)cc1Cl` (stereo not given), the cell number change was found to be 24.3%. For `Cc1cc(C(C#N)c2ccccc2)n2ncnc2n1` (stereo not given), the cell number change stood at 9.15%. Further, the AC50 under setting [2] is 0.731 µM [falling, single point].

As to `CC1CN(c2ccc(NC(=S)NNCCC#N)cc2)CC(C)O1` (stereo not given), the cell number change was 48.8%. Further, the AC50 under setting [2] was 9.2 µM [rising, partial curve]. Further, the AC50 under setting [1] is 2.06 µM [rising, full curve]. `CC(C)(C)c1ccc(C(=O)Oc2ccc3c(c2)OCC3=O)cc1`: the cell number change was -39.5%. Further, the AC50 under setting [2] was 0.82 µM [falling, full curve]. Under setting [1], the AC50 is 0.58 µM [falling, full curve]. Regarding `O=C(NCc1ccc2c(c1)OCO2)C1CCN(S(=O)(=O)c2ccc(Br)s2)CC1`, the cell number change came out at 5.75%. The AC50 under setting [1] was 9.2 µM [rising, partial curve]. As for `COc1ccc(-c2cc(-c3ccc(OC)c(OC)c3)n[nH]2)c(O)c1`, the cell number change was -7.6%. `CCOC(=O)c1c(C)n(C)c2ccc(OC)c(NC(=O)CN3CCN(C(=O)c4ccco4)CC3)c12`: the cell number change was -7.22%. In addition, under setting [1], the AC50 is 0.00461 µM [rising, full curve, poor fit]. Take `CC1CCCCN1CC(=O)Nc1ccc2c(c1)OCO2` (stereo not given): the cell number change was -5.18%. Besides, the AC50 under setting [1] was 11.6 µM [rising, partial curve, poor fit]. Consider `c1ccc(Nc2ccccc2)cc1`, for which the cell number change came out at 24.5%. On the same count and under the same terms, then `Cc1ccc(/C=C/C2=NN(Cc3ccc(Cl)c(Cl)c3)C(=O)CC2)cc1`, with -18.6%. On to `Cc1cccc(-n2ncc3c(N4CCCc5ccccc54)ncnc32)c1`, for which the cell number change is 9.87%. The AC50 under setting [2] was 2.31 µM [rising, single point]. In addition, under setting [1], the AC50 was 18.4 µM [rising, partial curve]. On to `COC(=O)Nc1ccc(S(=O)(=O)Nc2ccc(C)cc2)cc1`, for which the AC50 under setting [2] was 2.31 µM [rising, single point].

In the case of `CCCCC(=O)OCc1nc2ccccc2s1`, the AC50 under setting [1] is 0.116 µM [rising, single point]. As to `CCOc1ccc(CCNC(=O)CS(=O)Cc2nc(-c3ccccc3C)oc2C)cc1OCC` (stereo not given), the cell number change is -5.51%.

As to `Cc1ccccc1SCC(=O)Nc1cccc(C#N)c1`, the cell number change is 9.73%. Further, the AC50 under setting [1] is 1.64 µM [rising, partial curve]. In the case of `O=C(Cn1nnc2ccccc21)Nc1ccc([N+](=O)[O-])cc1`, the cell number change was 13.5%. For the same compound, the AC50 under setting [1] was 4.61 µM [rising, full curve, poor fit].

As to `COc1cc(S(=O)(=O)N2CCC(C(N)=O)CC2)c(C)cc1C`, the cell number change was -97.8%. Further, the AC50 under setting [2] was 1.84 µM [falling, full curve]. Moreover, the AC50 under setting [1] is 6.51 µM [falling, full curve]. Consider `Cc1nc2ccccc2c(=O)n1/N=C/c1ccc(C(C)C)cc1`, for which the cell number change is -36.4%. For the same compound, the AC50 under setting [2] is 29.1 µM [falling, single point].

With `CC(C)CCn1nnnc1C(c1ccc(F)cc1)N1CCN(C(=O)c2ccco2)CC1` (stereo not given), the cell number change was -15.9%. Besides, the AC50 under setting [1] is 20.6 µM [falling, single point].

Consider `CCOC(=O)N1CCN(S(=O)(=O)c2ccc3c4c(cccc24)C(=O)N3)CC1`, for which the cell number change is -0.0268%. The AC50 under setting [1] was 0.0206 µM [falling, full curve, poor fit]. As to `O=C(Cc1cccs1)Nc1ccc(F)cc1F`, the cell number change was 12.2%. The AC50 under setting [1] was 29.1 µM [rising, partial curve, poor fit].

With `CCOC(=O)CCCn1ncn2c(cc3occc32)c1=O`, the cell number change is 0.238%. On the same count and under the same terms, the result for `CCOc1ncccc1C(=O)NNC(=O)c1ccccc1-n1cccc1` reads 3.55%; that for `C=CCn1c(=O)c2c(nc3n2CCN3c2cccc(Cl)c2C)n(C)c1=O`, -6.53%.

In the case of `Nc1ccc(SC(F)(F)F)cc1`, the cell number change is 22.9%. The AC50 under setting [2] is 3.66 µM [falling, single point]. On to `O=C(Nc1ccc(F)c([N+](=O)[O-])c1)C(=O)c1c(O)[nH]c2ccccc12`, for which the cell number change came to 0.721%. For the compound `CCN(CC)c1ccc(S(=O)(=O)N2CCOCC2)cc1NC(=O)COC(=O)/C=C/c1ccc(C)o1`, the AC50 under setting [2] is 0.731 µM [falling, single point].

On to `Cc1cccc(C)c1NC(=O)CCc1nnc2ccc(N3CCCC3)nn12`, for which the cell number change was -13.9%. In the case of `C/C(Cn1cnc([N+](=O)[O-])n1)=N\NC(=O)c1cccnc1`, the cell number change was determined as 20%. The AC50 under setting [1] is 29.1 µM [rising, single point].

For `Cc1ccc(NC(=O)c2sc(N)nc2-c2ccccc2)cc1C`, the AC50 under setting [1] was 0.00517 µM [falling, full curve, poor fit].

The values are drawn from PubChem BioAssay AID2685 (National Center for Advancing Translational Sciences (NCATS), 2010).
